According to patent US20220184071A1, “GEPOTIDACIN FOR USE IN THE TREATMENT OF BACTERIAL URINARY TRACT INFECTIONS” (GlaxoSmithKline Intellectual Property Development Limited, priority 2019, published 2022):
Some of these results come from one statement about several compounds together.

Test system: Staphylococcus saprophyticus
Assay: MIC by CLSI broth microdilution in CAMHB and urine, Example 1 Method 3
Format: cell-based
Conditions: 100% pooled urine vs CAMHB; both gepotidacin and levofloxacin
Method: Antimicrobial activity was determined by broth microdilution using the CLSI recommended procedure.
The compounds were tested in serial two-fold dilutions and the minimum inhibitory concentration (MIC) was determined as the lowest concentration of the compound that inhibited visible growth.
In particular, gepotidacin was tested against 6 strains of Staphylococcus saprophyticus from the collection of isolates at Laboratory Specialists, Inc., Westlake, Ohio.
Levofloxacin was included as the comparator in the study to determine the effect of urine on the in vitro activity of gepotidacin against Staphylococcus saprophyticus. MICs were determined by broth microdilution according CLSI methods.
The data shown in the table below are results from an in vitro study conducted with the same S. saprophyticus isolates described above, to determine the effect of urine on the in vitro activity of gepotidacin and levofloxacin against S. saprophyticus. Study strains were tested for MICs (minimum inhibitory concentrations) according to reference CLSI broth microdilution method using cation-adjusted Mueller Hinton Broth (CAMHB) and with the addition of 25%, 50% and 100% urine (not pH adjusted, pH 6.42) and 100% urine (pH adjusted, 7.31 and 8.07).

Compound | mean dilution differences (range)
C[C@H]1COc2c(N3CCN(C)CC3)c(F)cc3c(=O)c(C(=O)O)cn1c23 [Levofloxacin, reference compound] | 0.67-1.54
O=c1ccc2ncc(=O)n3c2n1C[C@H]3CN1CCC(NCc2cc3c(cn2)OCCC3)CC1 [gepotidacin, (2R)-2-({4-[(3,4-dihydro-2H-pyrano[2,3-c]pyridin-6-ylmethyl)amino]-1-piperidinyl}methyl)-1,2-dihydro-3H,8H-2a,5,8a-triazaacenaphthylene-3,8-dione] | 0.67-1.54
